Results: PMC12396377

The chains behind the UniProt entries cited, without tags or fusion partners.
UniProt P19484: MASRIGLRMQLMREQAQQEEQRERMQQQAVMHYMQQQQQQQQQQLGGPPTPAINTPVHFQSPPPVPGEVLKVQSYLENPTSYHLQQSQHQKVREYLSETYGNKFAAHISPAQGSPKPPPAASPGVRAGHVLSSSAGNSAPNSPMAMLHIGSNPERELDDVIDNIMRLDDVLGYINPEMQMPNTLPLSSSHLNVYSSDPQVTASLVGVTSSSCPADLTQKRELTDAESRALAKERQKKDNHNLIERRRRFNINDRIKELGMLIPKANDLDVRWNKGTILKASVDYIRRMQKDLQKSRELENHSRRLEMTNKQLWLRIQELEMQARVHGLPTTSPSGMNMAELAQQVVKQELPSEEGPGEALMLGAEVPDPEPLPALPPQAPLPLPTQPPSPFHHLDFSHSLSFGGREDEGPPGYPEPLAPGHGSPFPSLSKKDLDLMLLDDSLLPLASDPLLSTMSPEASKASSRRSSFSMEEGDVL
UniProt P27695: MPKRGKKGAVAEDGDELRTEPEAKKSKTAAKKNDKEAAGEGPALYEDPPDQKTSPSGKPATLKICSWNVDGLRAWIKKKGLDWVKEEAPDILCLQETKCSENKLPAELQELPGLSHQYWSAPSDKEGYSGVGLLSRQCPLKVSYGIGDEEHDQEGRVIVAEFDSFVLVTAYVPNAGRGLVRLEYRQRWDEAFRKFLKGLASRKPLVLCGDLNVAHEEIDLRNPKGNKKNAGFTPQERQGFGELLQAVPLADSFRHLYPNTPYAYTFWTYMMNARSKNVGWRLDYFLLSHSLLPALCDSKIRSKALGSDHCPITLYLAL
UniProt Q99832: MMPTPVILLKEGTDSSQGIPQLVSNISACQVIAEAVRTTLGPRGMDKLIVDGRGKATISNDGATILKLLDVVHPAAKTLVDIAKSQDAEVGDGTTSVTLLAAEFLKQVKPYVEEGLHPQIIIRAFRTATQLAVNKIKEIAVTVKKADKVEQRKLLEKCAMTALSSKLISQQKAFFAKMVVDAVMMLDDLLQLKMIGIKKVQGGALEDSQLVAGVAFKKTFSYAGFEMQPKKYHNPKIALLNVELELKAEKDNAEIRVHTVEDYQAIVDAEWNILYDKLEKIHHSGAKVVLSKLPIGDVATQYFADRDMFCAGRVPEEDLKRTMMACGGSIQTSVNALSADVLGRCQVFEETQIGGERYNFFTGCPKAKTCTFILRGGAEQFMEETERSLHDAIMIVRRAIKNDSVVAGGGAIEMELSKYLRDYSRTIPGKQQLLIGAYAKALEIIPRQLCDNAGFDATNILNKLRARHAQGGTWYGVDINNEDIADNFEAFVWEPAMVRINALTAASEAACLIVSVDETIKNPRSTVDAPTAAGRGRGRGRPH

Columns and labels:
[1] = target: TFEB::mNG (transcription factor EB fused to mNeonGreen) (UniProt P19484); assay: condition: only cells treated with MK6-83 instead of LLOMe; affinity purification with mass spectrometry; WT HeLa cells stably expressing TFEB::mNG treated with MK6-83 (not LLOMe); cross-linking, mNG-Trap IP and MS; cutoff for enrichment log2 fold change >0.4
[2] = target: TFEB::mNG (transcription factor EB fused to mNeonGreen) (UniProt P19484); assay: affinity purification with mass spectrometry; WT and ATG7 KO HeLa cells stably expressing TFEB::mNG, untreated or 1 mM LLOMe for 1 or 3 h, or MK6-83 for 3 h; 0.1% formaldehyde cross-linking; HEPES-RIPA lysate; mNG-Trap magnetic agarose beads, 4°C 2 h; on-bead digestion, LC-MS/MS, label-free quantification
[3] = target: TFEB::mNG (transcription factor EB fused to mNeonGreen) (UniProt P19484); assay: as above; remark: listed apart in the source

binding [1]: no binding
binding [2]: binds
Molecule: APEX1 (apurinic/apyrimidinic endodeoxyribonuclease 1), endogenous (from UniProt P27695 1-318)

binding [2]: binds
Molecule: CCT7 (chaperonin-containing TCP1 subunit 7), endogenous (from UniProt Q99832 1-543)

binding [3]: binds
B1: TRIP6 (thyroid hormone receptor interactor 6), endogenous (protein, UniProt Q15654 1-476)
chain: MSGPTWLPPKQPEPARAPQGRAIPRGTPGPPPAHGAALQPHPRVNFCPLPSEQCYQAPGGPEDRGPAWVGSHGVLQHTQGLPADRGGLRPGSLDAEIDLLSSTLAELNGGRGHASRRPDRQAYEPPPPPAYRTGSLKPNPASPLPASPYGGPTPASYTTASTPAGPAFPVQVKVAQPVRGCGPPRRGASQASGPLPGPHFPLPGRGEVWGPGYRSQREPGPGAKEEAAGVSGPAGRGRGGEHGPQVPLSQPPEDELDRLTKKLVHDMNHPPSGEYFGQCGGCGEDVVGDGAGVVALDRVFHVGCFVCSTCRAQLRGQHFYAVERRAYCEGCYVATLEKCATCSQPILDRILRAMGKAYHPGCFTCVVCHRGLDGIPFTVDATSQIHCIEDFHRKFAPRCSVCGGAIMPEPGQEETVRIVALDRSFHIGCYKCEECGLLLSSEGECQGCYPLDGHILCKACSAWRIQELSATVTTDC

Results are given in words; binding and its absence hold for the method and conditions named. In cells and extracts the contact can be indirect. A yes stands for co-enrichment or nearness to the bait. Other partners may have been found. For some of these results: No binding means not detected with the bait. One block for each molecule: values may come before it.
